Data as given in PubChem BioAssay AID743454 (Peter MacCallum Cancer Centre, 2014)
Purpose: 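Search for knock-downs that restore vorinostat killing in resistant colon cancer cells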 (primary screen). Cell system: human HCT116-VR colon cancer cells, selected for vorinostat resistance. Reagent: siRNA pool against human genes, 40 nM siRNA pool. Timing: vorinostat for 24 h, read-out about 72 h after transfection. Conditions: vorinostat at 2.5 µM final. Measurement: 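Cell viability by CellTiter-Fluor and caspase 3/7 activity by luminescence, each scaled to mock wells per plate, duplicates averaged, then robust z-scored over all plates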. Direction: viability robust z-score: higher = more viable cells than screen typical; caspase robust z-score: higher = more caspase 3/7 activity than screen typical. Call rule: 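a knock-down is a hit when classed RV1 or RV2 for lowered viability, or CA1 or CA2 for caspase activation; those lethal without drug were dropped; hits were retested singly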.
In all, the deposit lists about 18,000 reagents; below is an unselected part. Over the whole deposit, 450 (2.5%) were called active. 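Single biological run; no consistent viability z cut-off exists, so the class columns, not z-scores, define the calls.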 Unmarked entries are inactive. No sequences are given here.

target,viability hit class,caspase hit class,viability robust z-score,caspase robust z-score
TRAPPC9 (trafficking protein particle complex subunit 9),no change,no change,0.8,-0.51
CACNG2 (calcium voltage-gated channel auxiliary subunit gamma 2),no change,no change,1.17,0.08
TCERG1L (transcription elongation regulator 1 like),no change,no change,-0.24,2.54
SYNE3 (spectrin repeat containing nuclear envelope family member 3),no change,no change,0.34,1.25
PPDPF,no change,no change,1.05,0.32
CDKL3 (cyclin dependent kinase like 3),no change,no change,-0.05,-0.21
OR4F29 (olfactory receptor family 4 subfamily F member 29),no change,no change,-0.02,0.18
GOLGA3 (golgin A3),no change,no change,-1.36,-0.24
SYT15 (synaptotagmin 15),no change,no change,-1.01,1.02
DYNC2I2 (dynein 2 intermediate chain 2),no change,no change,0.14,2
KCNJ3 (potassium inwardly rectifying channel subfamily J member 3),no change,no change,-0.94,-0.46
CPNE5 (copine 5),no change,no change,0.84,0.54
BBS2 (Bardet-Biedl syndrome 2),no change,no change,0.3,-0.52
MYBPC1 (myosin binding protein C1),no change,no change,0.14,0.52

Taken from above.
Under “caspase hit class”, MYBPC1 (myosin binding protein C1) has no change
Value for BBS2 (Bardet-Biedl syndrome 2) under “caspase hit class”: no change
KCNJ3 (potassium inwardly rectifying channel subfamily J member 3), caspase robust z-score = -0.46

The listing continues:
target,viability hit class,caspase hit class,viability robust z-score,caspase robust z-score
SLFNL1 (schlafen like 1),no change,no change,-1.27,0.77
LINC00477 (long independently transcribed non-coding RNA 477),no change,no change,-0.96,1.56
PLIN3 (perilipin 3),no change,no change,-1.16,1.11
EIF2AK1 (eukaryotic translation initiation factor 2 alpha kinase 1),no change,no change,-0.64,2.46
CAPS2 (calcyphosine 2),no change,no change,0.4,-0.8
GATA3 (GATA binding protein 3),no change,no change,0.26,0.33
SPAG4 (sperm associated antigen 4),no change,no change,0.75,-0.43
KLRD1 (killer cell lectin like receptor D1),no change,no change,-1.98,0.12
IGFBP5 (insulin like growth factor binding protein 5),no change,no change,0.32,-0.72
